{
  "sequences": {"note": "The chains behind the UniProt entries cited, without tags or fusion partners. Where a name states a change or a piece, a line headed by the entry shows the natural chain unless it says otherwise.", "UniProt P10827": "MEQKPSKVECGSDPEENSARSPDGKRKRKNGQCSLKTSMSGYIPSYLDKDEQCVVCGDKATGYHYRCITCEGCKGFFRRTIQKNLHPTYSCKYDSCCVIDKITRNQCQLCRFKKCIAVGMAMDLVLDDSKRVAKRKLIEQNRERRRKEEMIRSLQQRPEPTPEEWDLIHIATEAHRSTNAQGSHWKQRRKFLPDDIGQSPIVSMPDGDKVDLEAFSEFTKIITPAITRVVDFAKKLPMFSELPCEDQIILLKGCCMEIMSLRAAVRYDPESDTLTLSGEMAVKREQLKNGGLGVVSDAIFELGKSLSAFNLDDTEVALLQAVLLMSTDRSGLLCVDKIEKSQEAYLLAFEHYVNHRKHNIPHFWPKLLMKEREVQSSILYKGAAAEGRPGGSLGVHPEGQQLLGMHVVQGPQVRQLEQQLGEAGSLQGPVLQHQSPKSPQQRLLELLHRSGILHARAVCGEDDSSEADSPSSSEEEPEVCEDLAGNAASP", "UniProt P10828": "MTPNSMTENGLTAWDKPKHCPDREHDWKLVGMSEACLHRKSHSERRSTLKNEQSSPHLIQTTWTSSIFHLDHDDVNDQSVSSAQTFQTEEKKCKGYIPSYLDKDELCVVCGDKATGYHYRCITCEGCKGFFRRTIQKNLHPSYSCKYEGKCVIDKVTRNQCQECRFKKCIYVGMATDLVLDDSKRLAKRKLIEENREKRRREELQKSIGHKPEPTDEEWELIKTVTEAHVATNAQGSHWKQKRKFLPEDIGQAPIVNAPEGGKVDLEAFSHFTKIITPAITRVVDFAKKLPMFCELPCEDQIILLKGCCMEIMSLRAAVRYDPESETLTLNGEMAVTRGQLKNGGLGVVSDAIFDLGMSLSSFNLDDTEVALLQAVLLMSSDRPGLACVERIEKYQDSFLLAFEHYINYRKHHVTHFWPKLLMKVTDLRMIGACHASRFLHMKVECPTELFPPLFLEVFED", "UniProt P19793": "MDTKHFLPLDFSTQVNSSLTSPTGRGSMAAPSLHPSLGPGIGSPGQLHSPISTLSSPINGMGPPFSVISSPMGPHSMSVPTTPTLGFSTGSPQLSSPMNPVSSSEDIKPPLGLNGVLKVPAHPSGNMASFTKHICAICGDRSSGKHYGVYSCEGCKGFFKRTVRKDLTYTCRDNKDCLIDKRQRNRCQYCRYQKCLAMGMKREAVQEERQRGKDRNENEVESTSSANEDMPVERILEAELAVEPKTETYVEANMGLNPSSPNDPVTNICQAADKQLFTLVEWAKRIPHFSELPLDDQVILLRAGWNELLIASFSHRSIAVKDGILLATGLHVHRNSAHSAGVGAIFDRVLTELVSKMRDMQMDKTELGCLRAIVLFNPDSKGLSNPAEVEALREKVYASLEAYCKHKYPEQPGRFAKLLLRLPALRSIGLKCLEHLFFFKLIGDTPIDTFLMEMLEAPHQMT", "UniProt P04637, whole entry, looked up": "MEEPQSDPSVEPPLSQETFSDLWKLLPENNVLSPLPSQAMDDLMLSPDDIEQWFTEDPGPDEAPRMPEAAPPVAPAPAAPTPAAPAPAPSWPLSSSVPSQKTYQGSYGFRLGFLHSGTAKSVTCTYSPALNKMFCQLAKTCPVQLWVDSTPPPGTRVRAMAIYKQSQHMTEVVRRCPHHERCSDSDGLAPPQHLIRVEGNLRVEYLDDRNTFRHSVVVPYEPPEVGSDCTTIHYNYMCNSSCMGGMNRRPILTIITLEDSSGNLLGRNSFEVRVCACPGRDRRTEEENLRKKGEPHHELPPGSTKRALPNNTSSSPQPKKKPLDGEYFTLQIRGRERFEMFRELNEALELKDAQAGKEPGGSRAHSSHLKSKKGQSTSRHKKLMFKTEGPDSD"},
  "source": "PubChem BioAssay (EPA / NIEHS)",
  "key": {"[1]": {"molecular_target": "THRA (gene 7067) (UniProt P10827)", "test": "TOX21_TRA_COA_Antagonist_Followup_ratio: Tox21 Thyroid Hormone Receptor alpha Antagonism through Coactivator Recruitment Follow-Up Assay, Ratio (AID 2283953)", "how_it_was_run": "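520:495 nm emission ratio (excitation 340 nm) reports fluorescein-SRC-2 peptide recruitment to GST-TRα LBD by TR-FRET with Tb anti-GST antibody. Values were normalized to DMSO (0%) and T3 control wells (100%); loss of signal indicated antagonism.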"}, "[2]": {"molecular_target": "THRB (gene 7068) (UniProt P10828)", "test": "TOX21_TRB_BLA_Antagonist_Followup_ratio: Tox21 Thyroid Hormone Receptor beta Antagonism Beta-lactamase (BLA) Follow-Up Assay, Ratio (AID 2283958)", "how_it_was_run": "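HEK293T cells with a GAL4-TRb LBD fusion and UAS-bla reporter, 3,000 cells/well in phenol red-free DMEM with 2% charcoal-stripped FBS. Exposed 18 h at 37C to 11 concentrations in triplicate; CCF4 460:530 nm ratio after 2 h, DMSO-referenced.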"}, "[3]": {"molecular_target": "Retinoic acid receptor RXR-alpha (Homo sapiens) (UniProt P19793)", "test": "TOX21_TR_RXR_BLA_Antagonist_Followup_ratio: Tox21 Thyroid Hormone Receptor beta Retinoid X Receptor alpha (RXRa) Antagonism Beta-lactamase (BLA) Follow-Up Assay, Ratio (AID 2283972)", "how_it_was_run": "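Compounds were tested in triplicate at 11 concentrations on RXRa-bla HEK293T cells for 16 h. Substrate cleavage ratio, normalized to DMSO, gave the endpoint.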"}, "[4]": {"test": "CCTE_Harrill_HTTr_CellCount_MCF7: CCTE's Cell Proliferation Assessment for the High-Throughput Transcriptomics (HTTr) Platform, Harrill Lab (AID 2284012);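 further: intended direction is loss of nuclei count meaning fewer cells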", "how_it_was_run": "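MCF7 cells exposed 6 hours to an eight-point dilution series; Hoechst-stained nuclei counted by high-content imaging. Bidirectional curve fitting against DMSO baseline.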"}, "[5]": {"test": "TOX21_p53_BLA_p3_viability: Viability Assessment in the Tox21 HCT-116 p53 Agonism Beta-lactamase Assay, Phase 3 (AID 2283593)", "how_it_was_run": "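HCT116 cells, 4000/well, dosed 5 h after plating by pin transfer (217-fold dilution from DMSO stock) and incubated 16 h at 37C, 5% CO2. Viability read as ATP luminescence with CellTiter-Glo after 30 min at room temperature.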"}, "[6]": {"molecular_target": "Cellular tumor antigen p53 (Homo sapiens) (UniProt P04637)", "test": "TOX21_p53_BLA_p5_ratio: Tox21 HCT-116 p53 Agonism Beta-lactamase Assay, Ratio, Phase 5 (AID 2283599)", "how_it_was_run": "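HCT-116 p53-bla cells (4000/well) plated 5 h, dosed with compound (217-fold DMSO dilution) for 16 h at 37 C; CCF4-AM substrate 2 h at room temperature. Activity is the 460/530 nm emission ratio (405 nm excitation), fitted in gain-of-signal direction versus DMSO.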"}, "[7]": {"test": "TOX21_p53_BLA_p5_viability: Viability Assessment in the Tox21 HCT-116 p53 Agonism Beta-lactamase Assay, Phase 5 (AID 2283600)", "how_it_was_run": "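Seeded cells (4000/well) settle 5 h before compound addition. Plates then incubate 16 h at 37C, receive FRET substrate for 2 h, and finally CellTiter-Glo, with luminescence measured after a 30 min room-temperature incubation.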"}, "[8]": {"molecular_target": "Cellular tumor antigen p53 (Homo sapiens) (UniProt P04637)", "test": "TOX21_p53_BLA_p3_ratio: Tox21 HCT-116 p53 Agonism Beta-lactamase Assay, Ratio, Phase 3 (AID 2283596)", "how_it_was_run": "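HCT116 p53-bla cells (4000/well) given compound in DMSO (217-fold dilution) after 5 h, incubated 16 h at 37C. CCF4-AM substrate 2 h at room temperature; 460/530 nm emission ratio, gain fitted against DMSO.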"}, "[9]": {"molecular_target": "Cellular tumor antigen p53 (Homo sapiens) (UniProt P04637)", "test": "TOX21_p53_BLA_p4_ratio: Tox21 HCT-116 p53 Agonism Beta-lactamase Assay, Ratio, Phase 4 (AID 2283601)", "how_it_was_run": "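HCT-116 p53 beta-lactamase reporter cells (4000/well) preincubated 5 h, then compound (217-fold dilution of DMSO stock) for 16 h at 37C. CCF4-AM substrate added 2 h at room temperature; 460/530 nm emission ratio fitted upward versus DMSO.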"}, "[10]": {"test": "TOX21_p53_BLA_p4_viability: Viability Assessment in the Tox21 HCT-116 p53 Agonism Beta-lactamase Assay, Phase 4 (AID 2283597);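 further: hits lower the luminescence signal meaning cytotoxicity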", "how_it_was_run": "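Luminescent ATP readout (CellTiter-Glo, 30 min, room temperature) in the same wells as the p53 bla ratio. HCT116 cells were treated for 16 h at 37C with DMSO-dissolved compounds.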"}},
  "note": "This list was built around the results that the source calls inconclusive (neither active nor inactive); the mix of calls is not that of the screen. For part of these data: Where the call is inconclusive, the potency comes from a doubtful curve fit. Active and inactive are the calls of the source. How the source made its calls: active means hit-call score of the fitted dose curve at least 0.9, where 1 is the maximum; inconclusive means response in the unintended direction; inactive means score below 0.9.",
  "data": [
    {"smiles": "CCC(COC(=O)c1cc(OC)c(OC)c(OC)c1)(c1ccccc1)N(C)C", "note": "(configuration not stated)", "values": [
      {"measurement": "outcome", "setting": "[1]", "result": "inactive"},
      {"measurement": "AC50", "setting": "[2]", "result": "inconclusive: 19.2 µM"},
      {"measurement": "outcome", "setting": "[3]", "result": "inactive"}
    ]},
    {"smiles": "CCCC(C)(COC(N)=O)COC(=O)NC(C)C", "note": "(configuration not stated)", "values": [
      {"measurement": "AC50", "setting": "[4]", "result": "inconclusive: 50 µM"}
    ]},
    {"smiles": "CCCCc1c(C)nc(NCC)[nH]c1=O", "values": [
      {"measurement": "outcome", "setting": "[4]", "result": "inactive"}
    ]},
    {"smiles": "O=C1CCCCC1CN1CCCCC1", "note": "(configuration not stated)", "values": [
      {"measurement": "AC50", "setting": "[5]", "result": "inconclusive: 0.0816 µM"},
      {"measurement": "AC50", "setting": "[6]", "result": "inconclusive: 23 µM"},
      {"measurement": "AC50", "setting": "[7]", "result": "inconclusive: 0.427 µM"}
    ]},
    {"smiles": "Clc1cc2c(cc1Cl)Oc1cc(Cl)c(Cl)cc1O2", "values": [
      {"measurement": "AC50", "setting": "[5]", "result": "inconclusive: 0.173 µM"},
      {"measurement": "AC50", "setting": "[8]", "result": "inconclusive: 0.287 µM"},
      {"measurement": "AC50", "setting": "[7]", "result": "inconclusive: 0.00227 µM"},
      {"measurement": "AC50", "setting": "[9]", "result": "inconclusive: 0.0343 µM"}
    ]},
    {"smiles": "c1ccc(CN2CCNCC2)cc1", "values": [
      {"measurement": "AC50", "setting": "[5]", "result": "inconclusive: 106 µM"},
      {"measurement": "AC50", "setting": "[10]", "result": "inconclusive: 106 µM"},
      {"measurement": "AC50", "setting": "[7]", "result": "inconclusive: 106 µM"},
      {"measurement": "AC50", "setting": "[9]", "result": "inconclusive: 106 µM"}
    ]},
    {"smiles": "COC(=O)C(C)N(C(=O)c1ccco1)c1c(C)cccc1C", "note": "(configuration not stated)", "values": [
      {"measurement": "outcome", "setting": "[5]", "result": "inactive"},
      {"measurement": "AC50", "setting": "[8]", "result": "inconclusive: 46.1 µM"},
      {"measurement": "outcome", "setting": "[6]", "result": "inactive"},
      {"measurement": "AC50", "setting": "[7]", "result": "inconclusive: 83.9 µM"},
      {"measurement": "AC50", "setting": "[9]", "result": "inconclusive: 77 µM"}
    ]},
    {"smiles": "COc1cc(N)c(Cl)cc1C(=O)NC1CN2CCC1CC2", "note": "(configuration not stated)", "values": [
      {"measurement": "outcome", "setting": "[5]", "result": "inactive"},
      {"measurement": "AC50", "setting": "[6]", "result": "inconclusive: 23 µM"},
      {"measurement": "AC50", "setting": "[7]", "result": "inconclusive: 23 µM"},
      {"measurement": "outcome", "setting": "[9]", "result": "inactive"}
    ]},
    {"smiles": "NC(=O)CF", "values": [
      {"measurement": "AC50", "setting": "[5]", "result": "inconclusive: 46.1 µM"},
      {"measurement": "outcome", "setting": "[10]", "result": "inactive"},
      {"measurement": "AC50", "setting": "[6]", "result": "inconclusive: 46.1 µM"},
      {"measurement": "AC50", "setting": "[7]", "result": "inconclusive: 46.1 µM"}
    ]},
    {"smiles": "CNC(=O)NC(O)C(Cl)(Cl)Cl", "note": "(configuration not stated)", "values": [
      {"measurement": "AC50", "setting": "[5]", "result": "inconclusive: 23 µM"},
      {"measurement": "outcome", "setting": "[10]", "result": "inactive"},
      {"measurement": "AC50", "setting": "[6]", "result": "inconclusive: 23 µM"}
    ]},
    {"smiles": "C[C@@H](CO)NC(=O)[C@@H]1C=C2c3cccc4[nH]cc(c34)C[C@H]2N(C)C1", "values": [
      {"measurement": "outcome", "setting": "[5]", "result": "inactive"},
      {"measurement": "AC50", "setting": "[10]", "result": "inconclusive: 23 µM"},
      {"measurement": "outcome", "setting": "[7]", "result": "inactive"}
    ]},
    {"smiles": "O=[N+]([O-])C(Br)Br", "values": [
      {"measurement": "outcome", "setting": "[5]", "result": "inactive"},
      {"measurement": "AC50", "setting": "[10]", "result": "inconclusive: 46.2 µM"},
      {"measurement": "outcome", "setting": "[7]", "result": "inactive"}
    ]},
    {"smiles": "CCSC(=O)Cl", "values": [
      {"measurement": "AC50", "setting": "[5]", "result": "inconclusive: 47.7 µM"},
      {"measurement": "AC50", "setting": "[8]", "result": "inconclusive: 47.7 µM"},
      {"measurement": "outcome", "setting": "[7]", "result": "inactive"}
    ]},
    {"smiles": "CCCCC/C=C\\C/C=C\\C/C=C\\C/C=C\\CCCC(=O)NCC(=O)O", "values": [
      {"measurement": "AC50", "setting": "[5]", "result": "inconclusive: 4.18 µM"},
      {"measurement": "AC50", "setting": "[8]", "result": "inconclusive: 2.3 µM"},
      {"measurement": "outcome", "setting": "[7]", "result": "inactive"}
    ]},
    {"smiles": "Clc1ccc2c(c1)C(c1ccccc1)=NCc1nncn1-2", "values": [
      {"measurement": "AC50", "setting": "[5]", "result": "inconclusive: 23 µM"},
      {"measurement": "AC50", "setting": "[10]", "result": "inconclusive: 1.18 µM"},
      {"measurement": "AC50", "setting": "[6]", "result": "inconclusive: 23 µM"}
    ]},
    {"smiles": "COc1ccc2c(c1)C13CCCC[C@@H]1C(C2)N(C)CC3", "note": "(some centres not stated)", "values": [
      {"measurement": "AC50", "setting": "[5]", "result": "inconclusive: 1.28 µM"},
      {"measurement": "outcome", "setting": "[8]", "result": "inactive"},
      {"measurement": "AC50", "setting": "[7]", "result": "inconclusive: 23 µM"}
    ]},
    {"smiles": "CCOP(=O)(OCC)SCCSCC", "note": "(tested in a mixture with another compound)", "values": [
      {"measurement": "outcome", "setting": "[5]", "result": "inactive"},
      {"measurement": "AC50", "setting": "[7]", "result": "inconclusive: 0.000172 µM"}
    ]},
    {"smiles": "CC(Cl)(Cl)[N+](=O)[O-]", "values": [
      {"measurement": "AC50", "setting": "[5]", "result": "inconclusive: 44.9 µM"},
      {"measurement": "AC50", "setting": "[8]", "result": "inconclusive: 44.9 µM"},
      {"measurement": "outcome", "setting": "[6]", "result": "inactive"},
      {"measurement": "AC50", "setting": "[7]", "result": "inconclusive: 44.9 µM"},
      {"measurement": "outcome", "setting": "[9]", "result": "inactive"}
    ]}
  ]
}
